Results: article PMC6167110, “NgcE^Sco Acts as a Lower-Affinity Binding Protein of an ABC Transporter for the Uptake of N,N′-Diacetylchitobiose in Streptomyces coelicolor A3(2)” (Microbes and Environments, 2018)

Amino acid sequences for entries named in this document (tags omitted). A change or cut given only in a name is not applied to a line headed by its entry.
UniProt Q9K492: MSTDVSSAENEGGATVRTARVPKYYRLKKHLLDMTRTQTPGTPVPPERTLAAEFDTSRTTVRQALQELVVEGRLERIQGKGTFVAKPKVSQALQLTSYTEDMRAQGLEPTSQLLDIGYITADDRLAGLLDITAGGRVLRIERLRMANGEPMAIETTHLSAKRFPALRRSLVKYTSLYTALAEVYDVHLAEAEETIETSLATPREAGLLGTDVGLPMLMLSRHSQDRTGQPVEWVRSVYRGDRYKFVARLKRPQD

Target: DasR-6His (Streptomyces coelicolor A3(2)) (UniProt Q9K492)
Test: EMSA
Settings: 1% agarose gel, pH and temperature not given, recombinant protein, protein details: C-terminal 6xHis, label: Cy5 on the printed strand

CCGCCAAGCGAAAGTGGACTATACCTGTCGGCACTCCGGG (double strand) [drengcE]
binding result (GlcN-6P (mM range); probably uM) in 50 uL): binds more weakly
binding result (GlcNAc-6P (mM range, stronger inhibitor than GlcN-6P); probably uM) in 50 uL): binds more weakly

For at least one entry, the source does not settle the construct or the ends of the probe. A weaker result is weaker than the reference pair of the same experiment.
